Measurements reported in patent publication US20250155441A1.
Results are given in words; binding and its absence hold for the method and conditions named. Some entries that bind do so weakly or less than the wild type.

Target: T1, AFP(248-256)Ac-248]amid (human)
T1 sequence (peptide, N-terminal acetylation; C-terminal carboxyamide): TKVNFTEIQ
Assay: SPR affinity in solution

binding: binds
B1: mAb<AFP-L3>rRb-3C5-IgG (antibody, V domains shown)
VH: QSVEESGGRLVAPGTPLTLTCTVSGIDLSTYGMGWVRQAPGKGLEYIGIIDSGSTYYANWAKGRFTISKTSTTVDLKMTSLTTEDTATYFCARDRDPSSSGYYFKMWGPGTLVTVSL
VL: ALVMTQTPSSVSAAVGGTVTINCQASQSIGSYLAWYQQKPGQPPRLLIYGASNLESGVPSRFKGSGSGTEFTLTISDLECDDAATYYCQTAFYIFSSDNAFGGGTEVVVK
